Test results from article PMC4227133.
No constants are given. Whether binding was seen depends on the method and setting. In cells and extracts the contact can be indirect. Some entries that bind do so weakly or less than the wild type.

Sequences of proteins named here, by UniProt entry; tags and fusion partners are left off.
UniProt O60563: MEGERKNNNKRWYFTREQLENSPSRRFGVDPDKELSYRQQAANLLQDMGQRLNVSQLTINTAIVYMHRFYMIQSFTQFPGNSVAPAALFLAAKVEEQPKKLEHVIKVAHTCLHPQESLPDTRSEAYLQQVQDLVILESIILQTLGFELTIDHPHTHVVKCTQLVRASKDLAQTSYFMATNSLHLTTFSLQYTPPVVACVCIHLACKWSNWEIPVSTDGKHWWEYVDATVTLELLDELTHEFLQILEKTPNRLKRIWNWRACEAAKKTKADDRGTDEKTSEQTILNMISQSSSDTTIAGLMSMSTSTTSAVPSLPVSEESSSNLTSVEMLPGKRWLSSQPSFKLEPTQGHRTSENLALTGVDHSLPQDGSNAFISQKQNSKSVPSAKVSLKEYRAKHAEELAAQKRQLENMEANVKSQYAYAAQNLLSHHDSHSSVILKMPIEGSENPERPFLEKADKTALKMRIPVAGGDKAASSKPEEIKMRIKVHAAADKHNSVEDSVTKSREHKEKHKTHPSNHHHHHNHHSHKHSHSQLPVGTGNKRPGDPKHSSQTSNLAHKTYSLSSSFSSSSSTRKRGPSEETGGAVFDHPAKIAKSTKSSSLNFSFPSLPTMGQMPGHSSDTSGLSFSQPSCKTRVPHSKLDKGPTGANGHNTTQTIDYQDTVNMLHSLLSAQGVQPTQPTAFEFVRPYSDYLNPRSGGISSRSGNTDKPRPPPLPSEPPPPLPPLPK
UniProt O94992: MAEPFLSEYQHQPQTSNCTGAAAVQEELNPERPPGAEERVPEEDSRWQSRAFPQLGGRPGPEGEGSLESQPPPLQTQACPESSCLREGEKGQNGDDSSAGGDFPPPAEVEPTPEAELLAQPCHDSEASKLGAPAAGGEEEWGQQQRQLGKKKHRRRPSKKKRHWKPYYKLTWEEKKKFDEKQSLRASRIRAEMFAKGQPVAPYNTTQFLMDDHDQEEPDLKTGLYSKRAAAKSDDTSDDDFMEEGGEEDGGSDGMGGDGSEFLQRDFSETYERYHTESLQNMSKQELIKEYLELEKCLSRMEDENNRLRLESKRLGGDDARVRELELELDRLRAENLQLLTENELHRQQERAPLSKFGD

Target: Gal4-CycT1 wild type expressed in HEK293 cells (pCMVGal4-CycT1m) (human) (UniProt O60563)
Test: co-IP; Gal4-CycT1 proteins transiently expressed in HEK293 cells, immunoprecipitated with anti-Gal4 antibodies; Western blot with Cdk9, Cyclin T1 and Hexim1 antibodies; lysis buffer with 200 mM NaCl, 0.5% Igepal

- binding: binds
Substance: Hexim1, endogenous in HEK293 cells (from UniProt O94992 1-359)
